# Primary screen of a compound library

Measurements from “University of Dundee, Small-Polar-MMV Screening Library” (2021), ChEMBL document CHEMBL3988442.

A: 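Phenotypic screen: M. tuberculosis growth, cholesterol and DPPC medium, 4 days; the read-out is not stated. Concentration: 50 µM. Direction is inferred from retests: higher values go with more growth inhibition. About 69,000 compounds were tested under these conditions; 0.54% (about 370) showed 50% or more at least once.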
B: 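Growth of Mycobacterium tuberculosis over 3 days (7H9 medium with glucose and tyloxapol); the read-out is not stated. Compounds at 50 µM. Direction is inferred from retests: higher values go with more growth inhibition. Of about 69,000 compounds tested this way, about 760 (1.1%) reached 50% or more in at least one test.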

Results are given as percent effect.
The record does not define 0% and 100%; most values in the screen are far below 50% and negative numbers occur (in some assays of this library far below -100).
Compounds were drawn at random from those tested, without regard to their results.
Two or more numbers in one place are separate tests of the same structure; such repeats can differ widely.

For CN(CC(=O)NCC(F)(F)F)Cc1cccc2c1OCCO2 the result was A: -36.1%; B: -8.664% and -40.86%. With COC[C@@H]1CCC[C@@]12CN(C(=O)N1CCCC1)CCO2 the screen gave A: 23.26%; B: 52.26%. Result for O=C(CCc1ccco1)N1CCCN(Cc2cscn2)CC1 was A: -5.298%; B: 6.241%. Cc1cnc(NS(=O)(=O)c2ccccc2)s1 read A: -0.2051%; B: 4.973% and 10.7%. O=C(O)C(F)(F)F.[H][C@@]12CCN(Cc3ccccc3C)C[C@]1([H])O[C@@H](C(=O)N(C)C)C2 gave A: -10.5%; B: -4.252%.

With COc1ccc(CCC2CCCN(CC(=O)O)C2)cc1 (stereo not shown) the screen gave A: 2.833%; B: -3.788% and -19.45%. CC(C)COCC(C)NC(=O)NCc1cccc(-n2cncn2)c1 (stereo not shown) read A: 19.45%; B: 22.51% and 9.653%. For Cc1noc(C)c1C(=O)N(Cc1ccsc1)CC1CCCO1 (stereo not shown) the result was A: -19.82%; B: -23.39%. For CN(C)Cc1cnn(-c2ccccc2C(=O)N(C)Cc2ccccc2)c1 the result was A: -17.21%; B: 11.12%. CCC(=O)N1CCc2[nH]cnc2C12CCN(C(=O)CCS(C)(=O)=O)CC2 gave A: -15.09%; B: -3.502% and -0.1977%.

With CC(c1ccc(F)cc1F)N1CCN(Cc2nccn2C)CC1 (stereo not shown) the screen gave A: -2.412%; B: 21.51%. CCC(NC(=O)C1CCN(S(C)(=O)=O)CC1)c1ccc(C)cc1 (stereo not shown) gave A: -3.735%; B: 24.81%. With Oc1cccc(-c2cc(C3CCN(Cc4cncnc4)C3)ccn2)c1 (stereo not shown) the screen gave A: -8.449%; B: 31.37%. CN(C)C(=O)N1CCN(Cc2cnn(C)c2)CC2(CNC(=O)C2)C1.O=C(O)C(F)(F)F (stereo not shown) gave A: -3.825%; B: 0.7795%. With Cc1noc(CCNC(=O)NCC(=O)NCc2ccccc2)n1 the screen gave A: -8.441%; B: 31.97%.

Result for CN(C)C(=O)CCCn1ccc(NC(=O)NCc2cccc(F)c2)n1 was A: -5.061%; B: 9.212%. Clc1cccc(Cl)c1CN(CCCN1CCOCC1)Cc1cccnc1 gave A: -15.44%; B: 7.036%. CCC(C(=O)N(C)Cc1cc(-c2ccccc2)n[nH]1)n1cccn1 (stereo not shown) gave A: -28.14%; B: -9.703%. CC1CCN(c2ncc(-c3ccccc3F)c(-c3nccn3C)n2)CC1 gave A: -5.881% and -13.47%; B: -7.126%. With [H][C@@]12C[C@H](c3nnc(C4CC4)o3)O[C@@]1([H])CCN(CC1CCOCC1)C2 the screen gave A: -2.999%; B: 14.69%.

O=C(c1ccc(C2CCCO2)s1)N1Cc2ccccc2C1 (stereo not shown) gave A: 36.46%; B: 47.28%. With CC1CCN(C(=O)c2sccc2-n2cnnn2)CC1 the screen gave A: -9.43%; B: -0.1599%. Result for Cc1cccc(C(=O)N(C)Cc2cc(Br)cs2)n1 was A: 14.39%; B: 24.88% and 22.23%. Result for CSCCCN1CCCC1c1noc(C(C)C)n1 (stereo not shown) was A: -4.91%; B: 28.46%. For CN(C)c1ccc(C(=O)N2CCCN(Cc3cscn3)CC2)nn1 the result was A: -36.03%; B: -43.34%.

O=C(NC[C@H]1OC[C@@H](NCc2ccccc2)[C@@H]1O)Nc1ccccc1 gave A: 1.649%; B: -11.82% and -3.224%. CS(=O)(=O)NCc1ncn2c1CN(C(=O)C1CCCCC1)CCC2 gave A: -17.2%; B: 11%. Cc1cc(C)c(CCNC(=O)CN2CCCN(C(N)=O)CC2)c(C)c1 read A: -7.438% and -11.5%; B: -23.42%. Result for Cc1nn(C)c2nc(N3CCCCC3c3nccs3)sc12 (stereo not shown) was A: -2.301%; B: 4.769% and -17.23%. With CCN1CC(=O)c2sc(NC(C)C)nc2C1 the screen gave A: -16.74%; B: -5.415%.

COCCNC(=O)c1ccc2c(=O)n3c(nc2c1)CCCC3 gave A: -25.12%; B: 4.498%. O=C(NCCCC(=O)N1Cc2ccccc2C1)NCc1nccs1 read A: -9.795%; B: -13.81% and -2.232%. For CN(C)CCO[C@H]1C[C@@H](O)C12CCN(c1ncccc1Cl)CC2 the result was A: 29.5%; B: 7.605%.

For reference, 4 entries once more:

{"structure": "Oc1cccc(-c2cc(C3CCN(Cc4cncnc4)C3)ccn2)c1", "stereo": "stereo not shown", "A": -8.449, "B": 31.37}
{"structure": "Cc1cccc(C(=O)N(C)Cc2cc(Br)cs2)n1", "A": 14.39, "B": "24.88 and 22.23"}
{"structure": "CC(c1ccc(F)cc1F)N1CCN(Cc2nccn2C)CC1", "stereo": "stereo not shown", "A": -2.412, "B": 21.51}
{"structure": "CN(CC(=O)NCC(F)(F)F)Cc1cccc2c1OCCO2", "A": -36.1, "B": "-8.664 and -40.86"}